Test results as given in the supplement of paper PMC11732987, “Enantioselective OTUD7B fragment discovery through chemoproteomics screening and high-throughput optimisation” (Communications Chemistry, 2025).
The other results are listed elsewhere or left out. The data scatter; read single values as rough.

Amino acid sequences for entries named in this document (tags omitted). A change or cut given only in a name is not applied to a line headed by its entry. Residues count along the entry.
UniProt Q8N3C0: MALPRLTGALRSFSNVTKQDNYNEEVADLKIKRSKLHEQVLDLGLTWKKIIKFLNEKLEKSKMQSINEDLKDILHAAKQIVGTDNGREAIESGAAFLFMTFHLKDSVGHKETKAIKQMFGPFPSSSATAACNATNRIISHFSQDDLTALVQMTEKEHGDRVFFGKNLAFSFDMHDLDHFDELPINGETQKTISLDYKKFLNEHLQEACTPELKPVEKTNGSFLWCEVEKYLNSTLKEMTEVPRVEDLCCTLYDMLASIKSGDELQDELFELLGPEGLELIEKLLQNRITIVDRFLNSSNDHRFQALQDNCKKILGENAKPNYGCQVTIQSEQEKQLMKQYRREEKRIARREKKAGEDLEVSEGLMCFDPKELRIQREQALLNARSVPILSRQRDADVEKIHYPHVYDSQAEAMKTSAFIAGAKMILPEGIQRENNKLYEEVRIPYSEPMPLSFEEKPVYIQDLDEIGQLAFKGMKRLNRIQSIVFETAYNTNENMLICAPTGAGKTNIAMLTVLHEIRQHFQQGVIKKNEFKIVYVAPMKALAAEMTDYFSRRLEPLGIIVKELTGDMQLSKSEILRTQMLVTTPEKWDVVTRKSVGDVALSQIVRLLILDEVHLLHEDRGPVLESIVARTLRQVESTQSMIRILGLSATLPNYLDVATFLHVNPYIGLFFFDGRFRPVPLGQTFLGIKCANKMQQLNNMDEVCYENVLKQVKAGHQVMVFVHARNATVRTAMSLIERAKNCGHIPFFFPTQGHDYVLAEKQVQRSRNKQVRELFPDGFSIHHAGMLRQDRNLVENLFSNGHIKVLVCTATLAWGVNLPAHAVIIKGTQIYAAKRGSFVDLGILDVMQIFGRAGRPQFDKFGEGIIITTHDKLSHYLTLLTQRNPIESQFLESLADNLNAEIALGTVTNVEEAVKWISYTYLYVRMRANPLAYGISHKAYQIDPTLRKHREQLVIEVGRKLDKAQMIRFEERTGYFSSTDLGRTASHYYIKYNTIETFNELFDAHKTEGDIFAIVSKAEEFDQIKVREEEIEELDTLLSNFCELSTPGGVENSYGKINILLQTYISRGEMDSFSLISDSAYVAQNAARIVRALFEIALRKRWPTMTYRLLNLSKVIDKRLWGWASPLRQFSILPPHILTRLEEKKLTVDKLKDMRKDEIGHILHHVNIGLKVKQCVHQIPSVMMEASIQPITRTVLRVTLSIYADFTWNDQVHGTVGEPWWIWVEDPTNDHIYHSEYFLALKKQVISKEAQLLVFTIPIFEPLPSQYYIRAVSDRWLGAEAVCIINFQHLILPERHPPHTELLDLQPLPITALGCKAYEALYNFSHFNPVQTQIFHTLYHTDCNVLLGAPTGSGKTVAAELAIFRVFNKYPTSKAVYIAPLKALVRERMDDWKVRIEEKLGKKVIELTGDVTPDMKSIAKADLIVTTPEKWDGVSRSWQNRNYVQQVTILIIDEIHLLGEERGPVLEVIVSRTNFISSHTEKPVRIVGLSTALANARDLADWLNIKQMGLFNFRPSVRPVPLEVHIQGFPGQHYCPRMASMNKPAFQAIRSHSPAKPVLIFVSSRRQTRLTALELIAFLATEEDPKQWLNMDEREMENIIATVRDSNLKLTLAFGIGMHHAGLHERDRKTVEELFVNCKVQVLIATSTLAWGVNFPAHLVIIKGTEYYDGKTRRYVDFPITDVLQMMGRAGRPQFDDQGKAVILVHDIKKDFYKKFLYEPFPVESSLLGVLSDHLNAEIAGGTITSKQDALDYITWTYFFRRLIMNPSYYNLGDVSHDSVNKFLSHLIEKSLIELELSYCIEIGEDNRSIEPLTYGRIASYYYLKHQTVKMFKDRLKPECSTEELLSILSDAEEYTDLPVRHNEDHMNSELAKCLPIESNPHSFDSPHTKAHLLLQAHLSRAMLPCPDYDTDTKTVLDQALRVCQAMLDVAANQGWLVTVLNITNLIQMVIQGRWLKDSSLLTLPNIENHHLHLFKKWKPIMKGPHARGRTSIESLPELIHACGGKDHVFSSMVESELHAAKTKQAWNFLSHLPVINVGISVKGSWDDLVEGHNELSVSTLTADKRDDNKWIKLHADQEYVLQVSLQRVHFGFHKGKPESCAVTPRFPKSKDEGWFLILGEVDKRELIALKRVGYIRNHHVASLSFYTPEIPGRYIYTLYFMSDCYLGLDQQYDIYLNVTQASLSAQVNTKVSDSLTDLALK
UniProt O95782: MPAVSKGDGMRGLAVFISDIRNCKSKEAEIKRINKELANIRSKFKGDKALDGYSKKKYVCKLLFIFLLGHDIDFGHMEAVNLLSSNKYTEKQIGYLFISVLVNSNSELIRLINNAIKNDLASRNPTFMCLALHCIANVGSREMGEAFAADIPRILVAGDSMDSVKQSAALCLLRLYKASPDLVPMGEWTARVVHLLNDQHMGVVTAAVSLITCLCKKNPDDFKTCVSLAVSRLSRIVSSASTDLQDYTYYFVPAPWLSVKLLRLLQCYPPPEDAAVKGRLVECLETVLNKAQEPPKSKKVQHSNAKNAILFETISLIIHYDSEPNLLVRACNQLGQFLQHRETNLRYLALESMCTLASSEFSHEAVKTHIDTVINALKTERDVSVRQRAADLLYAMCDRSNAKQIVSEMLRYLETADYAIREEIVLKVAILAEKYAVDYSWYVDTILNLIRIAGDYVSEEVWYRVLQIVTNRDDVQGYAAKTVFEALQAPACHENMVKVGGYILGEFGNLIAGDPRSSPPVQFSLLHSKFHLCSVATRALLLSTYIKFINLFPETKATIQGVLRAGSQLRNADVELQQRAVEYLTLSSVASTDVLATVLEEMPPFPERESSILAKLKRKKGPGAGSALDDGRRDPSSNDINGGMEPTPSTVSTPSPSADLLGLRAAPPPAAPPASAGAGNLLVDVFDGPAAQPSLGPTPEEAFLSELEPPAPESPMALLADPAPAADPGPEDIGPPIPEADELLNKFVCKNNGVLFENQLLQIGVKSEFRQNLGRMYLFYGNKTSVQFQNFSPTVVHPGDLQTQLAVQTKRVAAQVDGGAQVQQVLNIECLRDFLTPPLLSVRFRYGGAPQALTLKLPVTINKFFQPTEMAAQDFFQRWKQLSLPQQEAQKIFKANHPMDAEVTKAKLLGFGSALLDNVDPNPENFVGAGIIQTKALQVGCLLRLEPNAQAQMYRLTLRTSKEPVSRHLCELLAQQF
UniProt Q14CB8: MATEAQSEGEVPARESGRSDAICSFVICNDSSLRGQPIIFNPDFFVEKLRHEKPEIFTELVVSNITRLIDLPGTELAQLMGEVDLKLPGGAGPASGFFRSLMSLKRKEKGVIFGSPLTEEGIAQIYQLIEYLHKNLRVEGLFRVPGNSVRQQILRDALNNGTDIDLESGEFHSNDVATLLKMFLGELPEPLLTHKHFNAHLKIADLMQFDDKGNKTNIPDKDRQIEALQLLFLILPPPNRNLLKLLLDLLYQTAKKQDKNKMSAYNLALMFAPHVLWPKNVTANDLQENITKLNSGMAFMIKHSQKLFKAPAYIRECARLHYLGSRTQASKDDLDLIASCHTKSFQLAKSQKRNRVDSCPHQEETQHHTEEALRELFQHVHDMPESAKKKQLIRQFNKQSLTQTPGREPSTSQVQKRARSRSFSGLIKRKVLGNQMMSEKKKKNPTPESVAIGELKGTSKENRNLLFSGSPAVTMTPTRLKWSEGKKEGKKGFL
UniProt O94973: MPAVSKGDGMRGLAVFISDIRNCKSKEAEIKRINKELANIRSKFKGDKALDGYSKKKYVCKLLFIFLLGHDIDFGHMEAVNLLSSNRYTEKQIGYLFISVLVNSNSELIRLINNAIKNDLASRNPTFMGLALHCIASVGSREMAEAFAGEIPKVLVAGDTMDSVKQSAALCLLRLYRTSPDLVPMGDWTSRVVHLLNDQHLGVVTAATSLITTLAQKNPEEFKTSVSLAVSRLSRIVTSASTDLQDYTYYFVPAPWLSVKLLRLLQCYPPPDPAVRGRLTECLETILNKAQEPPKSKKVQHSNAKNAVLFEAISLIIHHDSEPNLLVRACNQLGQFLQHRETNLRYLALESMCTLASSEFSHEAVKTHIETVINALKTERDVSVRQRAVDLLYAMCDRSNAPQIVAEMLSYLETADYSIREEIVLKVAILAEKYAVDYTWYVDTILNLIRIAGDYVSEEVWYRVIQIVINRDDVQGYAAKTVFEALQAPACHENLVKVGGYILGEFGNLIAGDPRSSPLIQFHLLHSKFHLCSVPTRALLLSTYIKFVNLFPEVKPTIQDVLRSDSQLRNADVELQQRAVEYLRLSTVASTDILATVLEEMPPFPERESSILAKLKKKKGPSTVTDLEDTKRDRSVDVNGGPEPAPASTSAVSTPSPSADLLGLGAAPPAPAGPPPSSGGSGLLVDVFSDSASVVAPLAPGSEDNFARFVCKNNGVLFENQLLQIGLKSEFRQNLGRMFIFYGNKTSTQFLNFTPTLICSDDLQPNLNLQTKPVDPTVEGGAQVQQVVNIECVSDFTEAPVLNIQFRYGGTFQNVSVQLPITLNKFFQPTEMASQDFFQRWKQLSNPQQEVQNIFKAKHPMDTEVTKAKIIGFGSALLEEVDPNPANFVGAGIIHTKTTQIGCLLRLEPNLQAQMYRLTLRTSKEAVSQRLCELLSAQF
UniProt O14617: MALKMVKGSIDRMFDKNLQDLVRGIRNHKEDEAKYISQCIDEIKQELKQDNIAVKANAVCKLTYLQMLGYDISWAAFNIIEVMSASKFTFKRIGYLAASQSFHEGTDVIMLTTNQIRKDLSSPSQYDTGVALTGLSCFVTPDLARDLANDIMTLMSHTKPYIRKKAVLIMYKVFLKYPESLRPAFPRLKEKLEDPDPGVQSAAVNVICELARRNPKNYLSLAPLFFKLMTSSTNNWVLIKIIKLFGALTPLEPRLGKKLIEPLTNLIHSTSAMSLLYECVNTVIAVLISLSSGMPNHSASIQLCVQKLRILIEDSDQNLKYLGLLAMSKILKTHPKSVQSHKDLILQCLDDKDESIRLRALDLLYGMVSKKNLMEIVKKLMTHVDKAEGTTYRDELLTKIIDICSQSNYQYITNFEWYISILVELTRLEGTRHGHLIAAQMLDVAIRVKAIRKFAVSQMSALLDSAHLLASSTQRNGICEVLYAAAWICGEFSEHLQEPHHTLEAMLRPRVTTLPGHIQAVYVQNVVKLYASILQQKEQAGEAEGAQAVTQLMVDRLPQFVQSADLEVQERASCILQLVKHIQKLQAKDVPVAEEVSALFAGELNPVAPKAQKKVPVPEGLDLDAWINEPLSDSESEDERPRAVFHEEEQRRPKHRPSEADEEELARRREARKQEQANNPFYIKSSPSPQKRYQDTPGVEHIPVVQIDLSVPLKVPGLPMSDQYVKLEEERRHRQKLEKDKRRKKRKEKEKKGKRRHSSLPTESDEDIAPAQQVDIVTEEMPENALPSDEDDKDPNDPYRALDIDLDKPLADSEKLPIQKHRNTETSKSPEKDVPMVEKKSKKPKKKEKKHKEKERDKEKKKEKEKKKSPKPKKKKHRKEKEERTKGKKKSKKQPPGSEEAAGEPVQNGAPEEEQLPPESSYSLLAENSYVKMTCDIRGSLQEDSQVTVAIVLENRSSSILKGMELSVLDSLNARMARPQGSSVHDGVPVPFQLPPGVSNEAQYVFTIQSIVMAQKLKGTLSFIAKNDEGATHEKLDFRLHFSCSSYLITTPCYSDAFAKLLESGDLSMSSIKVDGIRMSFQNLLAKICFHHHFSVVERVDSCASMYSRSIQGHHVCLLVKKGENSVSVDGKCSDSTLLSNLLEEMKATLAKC
UniProt O95671: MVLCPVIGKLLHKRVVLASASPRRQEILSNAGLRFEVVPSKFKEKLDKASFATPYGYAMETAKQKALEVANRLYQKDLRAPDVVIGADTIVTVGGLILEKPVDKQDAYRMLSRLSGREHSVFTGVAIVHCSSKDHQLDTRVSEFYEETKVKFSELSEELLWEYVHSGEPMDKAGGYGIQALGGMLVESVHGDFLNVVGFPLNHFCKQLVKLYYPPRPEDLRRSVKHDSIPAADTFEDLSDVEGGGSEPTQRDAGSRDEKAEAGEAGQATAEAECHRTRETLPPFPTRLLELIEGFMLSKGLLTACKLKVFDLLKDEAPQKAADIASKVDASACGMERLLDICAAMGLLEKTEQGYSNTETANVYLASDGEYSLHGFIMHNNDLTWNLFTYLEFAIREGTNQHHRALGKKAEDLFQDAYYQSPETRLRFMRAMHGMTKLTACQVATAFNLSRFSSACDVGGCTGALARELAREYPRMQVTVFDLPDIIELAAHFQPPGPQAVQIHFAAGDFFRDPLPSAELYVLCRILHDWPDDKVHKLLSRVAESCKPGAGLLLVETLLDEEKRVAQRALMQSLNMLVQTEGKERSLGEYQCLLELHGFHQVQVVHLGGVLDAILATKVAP
UniProt Q63HQ0, 173-193: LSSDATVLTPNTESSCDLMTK
UniProt Q8IZ07, 527-549: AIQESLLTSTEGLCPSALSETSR

Compound: ClCC(=O)N[C@@H]1CCCc2ccccc12
Assay: log2 mean competition ratio of IA-DTB cysteine labelling (DMSO/compound) (log2 ratio); higher = stronger cysteine engagement by compound
Details: treatment time: 4 h, cell line lysate: HEK293T
Procedure: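 IA-DTB competitive cysteine chemoproteomics in HEK293T RIPA lysate. Lysates were treated with compound 29 or 30 at 50 or 200 µM for 4 h, then IA-DTB (500 µM, 1 h), trypsin-digested, NeutrAvidin-enriched and analysed by diaPASEF. Competition ratio = intensity DMSO / intensity compound (n=4 treated, n=64 DMSO); binding: mean log2 CR ≥ 1 and p ≤ 0.05 plus QC filters. Target is the cysteine site.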

AS3MT C226
log2 mean competition ratio (50 µM): -0.121 | log2 mean competition ratio (200 µM): 0.398

ASCC3 C704 (UniProt Q8N3C0)
log2 mean competition ratio (50 µM): -0.26 | log2 mean competition ratio (200 µM): -0.0667

APAF1 C633 (UniProt O14727)
log2 mean competition ratio (50 µM): 0.0157 | log2 mean competition ratio (200 µM): 0.0464

AP2A1 C941 (UniProt O95782)
log2 mean competition ratio (50 µM): 0.659 | log2 mean competition ratio (200 µM): 0.217

ARHGAP19 C359 (UniProt Q14CB8)
log2 mean competition ratio (50 µM): 0.0487 | log2 mean competition ratio (200 µM): -0.0757

AP1G1 C539
log2 mean competition ratio (50 µM): 0.0381 | log2 mean competition ratio (200 µM): -0.245

ARHGEF40 C1148 (UniProt Q8TER5)
log2 mean competition ratio (50 µM): 0.299 | log2 mean competition ratio (200 µM): 0.00774

ANXA6 C59
log2 mean competition ratio (50 µM): -0.235 | log2 mean competition ratio (200 µM): -0.0496

ARHGAP42 C24
log2 mean competition ratio (50 µM): -0.248 | log2 mean competition ratio (200 µM): 0.309

AP2A2 C267 (UniProt O94973)
log2 mean competition ratio (50 µM): -0.092 | log2 mean competition ratio (200 µM): -0.309

AP3D1 C1103 (UniProt O14617)
log2 mean competition ratio (50 µM): 0.187 | log2 mean competition ratio (200 µM): -0.0184

ASMTL C130 (UniProt O95671)
log2 mean competition ratio (50 µM): 0.805 | log2 mean competition ratio (200 µM): -0.00615

ARMC8 C3
log2 mean competition ratio (50 µM): -0.00222 | log2 mean competition ratio (200 µM): -0.391

ANLN C353 (UniProt Q9NQW6)
log2 mean competition ratio (50 µM): 0.024 | log2 mean competition ratio (200 µM): -0.054

ARMC6 C435 (UniProt Q6NXE6)
log2 mean competition ratio (50 µM): -0.197 | log2 mean competition ratio (200 µM): 0.558

AP1AR C188 (UniProt Q63HQ0)
log2 mean competition ratio (50 µM): -0.479 | log2 mean competition ratio (200 µM): -0.005

ANKRD13A C540 (UniProt Q8IZ07)
log2 mean competition ratio (50 µM): -0.204 | log2 mean competition ratio (200 µM): -0.471

ARHGEF26 C533
log2 mean competition ratio (50 µM): 0.0301 | log2 mean competition ratio (200 µM): -0.07

APAF1 C426 (UniProt O14727)
log2 mean competition ratio (50 µM): -0.0665 | log2 mean competition ratio (200 µM): -0.0423

ARHGEF17 C231
log2 mean competition ratio (50 µM): 0.525 | log2 mean competition ratio (200 µM): 0.276

APEX2 C368 (UniProt Q9UBZ4)
log2 mean competition ratio (50 µM): 0.0881 | log2 mean competition ratio (200 µM): 0.35

ARID1A C1874 (UniProt O14497)
log2 mean competition ratio (50 µM): -0.0853 | log2 mean competition ratio (200 µM): -0.627

AP3B1 C893 (UniProt O00203)
log2 mean competition ratio (50 µM): -0.353 | log2 mean competition ratio (200 µM): -0.11

AP4M1 C235 (UniProt O00189)
log2 mean competition ratio (50 µM): -0.114 | log2 mean competition ratio (200 µM): 0.0724
